# Laboratory results: PubChem BioAssay AID504784 (Drosophila RNAi Screening Center, 2011)
# Test: 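Genome-wide knock-down for genes giving too much or too little stored lipid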 (primary screen)
# System: Drosophila Kc167 embryonic cells
# Reagents: long dsRNA against Drosophila genes, about 250 ng dsRNA per well
# Timing: 4 days
# Challenge: cells fed 400 µM oleic acid bound to BSA
# Measured: 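Cells imaged and segmented; ratio of lipid droplet area to nuclear area, log-transformed, then normalised as a B-score over the screen; higher means more stored lipid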
# Scale: droplet/nuclear area B-score: higher = more stored lipid (overstorage)
# The screen tested about 17,000 reagents; this is a random part of those that have a named target and a result. 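Each column is one replicate's B-score; the combined score over replicates was not deposited, so single values may mislead.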 Names joined by + are all predicted targets of the reagent. Reagent sequences are not shown.
gene knocked down,DRSC id,"droplet/nuclear area B-score, replicate 1","droplet/nuclear area B-score, replicate 2","droplet/nuclear area B-score, replicate 3"
cmb (combover),DRSC09790,1.72,-0.196,
Rcd-1r + CG13102,DRSC03266,0.561,1.6,
CG13170,DRSC06298,0.916,1.52,
CG5246,DRSC15751,0.0343,0.546,
Noc1 (Nucleolar complex protein 1),DRSC10921,2.01,-1.43,
Krn (Keren),DRSC11202,3.71,4.75,
CG9257,DRSC03173,-0.0487,-0.226,
CG11584,DRSC19408,-0.112,0.561,
ppk15 (pickpocket 15),DRSC14733,0.95,1.22,
mRpS18B (mitochondrial ribosomal protein S18B),DRSC02107,-1.08,1.23,
Klp68D (Kinesin-like protein at 68D),DRSC11206,0.278,0.422,
CG32639,DRSC18972,-1.23,-1.38,
CG31626 + CG8677,DRSC21844,-1.87,0.18,
cl (clot),DRSC02118,0.0329,-0.37,
slo (slowpoke),DRSC17057,2.67,-0.306,
"ATPsynCF6 (ATP synthase, coupling factor 6)",DRSC14092,1.24,1.62,
CG3713,DRSC18648,-1.6,0.126,
Pex13 (Peroxin 13),DRSC06877,1.5,0.761,
CG1142,DRSC12531,0.625,-0.569,
CG9458,DRSC16495,-0.0135,-0.0414,
CG7024,DRSC18414,-0.588,0.111,
Noc2 (Nucleolar complex protein 2),DRSC03165,0.492,-1.18,
ng3 (new glue 3),DRSC18804,-0.0985,-2.2,
CG16749,DRSC15146,-0.285,-1.11,
Ref1 (RNA and export factor binding protein 1),DRSC12497,1.61,-0.0108,-0.18
Ref1 (RNA and export factor binding protein 1),DRSC22387,8.64,1.6,
CG42326,DRSC06483,-0.0337,-0.581,
CG42326,DRSC06484,-0.296,-0.00312,
modSP (modular serine protease),DRSC16726,-1.35,0.0327,
modSP (modular serine protease),DRSC16857,0.16,-0.715,
modSP (modular serine protease),DRSC21489,0.404,0.317,
CG31612,DRSC03697,1.2,-1.52,-0.336
CG31612,DRSC03698,-0.691,-0.681,
"Alg10 (ALG10 alpha-1,2-glucosyltransferase)",DRSC10892,1.27,-1.05,
mrj,DRSC22592,0.682,0.427,
lili (lilipod),DRSC14143,-3.28,-0.84,
Fum4 (Fumarase 4),DRSC22577,-0.982,1.27,
pb (proboscipedia),DRSC12409,-1.61,2.97,
pb (proboscipedia),DRSC12629,0.0535,0.94,
Nup214 (Nucleoporin 214kD),DRSC04421,-1.1,-1.91,
BomS3 (Bomanin Short 3),DRSC21458,0.482,0.473,
EbpIII (Ejaculatory bulb protein III),DRSC04638,0.00809,-0.891,
Rtf1,DRSC04085,0.193,0.1,
CG14883,DRSC15007,-0.375,0.00732,
Paip2 (polyA-binding protein interacting protein 2),DRSC14504,0.139,-0.416,
lft (lowfat),DRSC02236,1.31,-0.39,
ms(3)76Cc (male sterile (3) 76Cc),DRSC11071,2.31,2.38,
ms(3)76Cc (male sterile (3) 76Cc),DRSC21630,0.192,0.671,
kud (kuduk),DRSC11086,-0.137,-0.676,
CG18766,DRSC15936,0.0662,0.688,
bdl (borderless),DRSC00271,1.79,-0.888,
mora (morgana),DRSC16594,0.0183,-2.43,
CG17562,DRSC15243,-0.659,1.74,
CG33181,DRSC17971,0.517,-0.821,
CG33181,DRSC22376,-0.233,1.14,
CG5500,DRSC15820,-0.152,-0.804,
Ser (Serrate),DRSC16856,-0.117,0.289,
CG9932,DRSC03275,1.87,1.61,
CG7191,DRSC03022,-1.98,0.148,
CG8248,DRSC07124,-0.483,-0.781,
htt (huntingtin),DRSC16970,-0.0942,1.05,
dpr19 (defective proboscis extension response 19),DRSC02237,0.927,1.28,
Vps15 (Vacuolar protein sorting 15),DRSC16553,-0.165,-1.41,
bdwf (bedwarfed),DRSC15532,-0.907,-0.0953,
Odj (Oddjob),DRSC16234,1.03,2.19,
mia (meiosis I arrest),DRSC12137,1.04,0.69,
CG4377,DRSC04467,0.609,-0.274,
Npc1a (Niemann-Pick type C-1a),DRSC03378,-0.178,-0.823,

10 entries from above, arranged by “droplet/nuclear area B-score, replicate 1”, ascending:
gene knocked down,DRSC id,"droplet/nuclear area B-score, replicate 1","droplet/nuclear area B-score, replicate 2","droplet/nuclear area B-score, replicate 3"
CG7191,DRSC03022,-1.98,0.148,
CG17562,DRSC15243,-0.659,1.74,
CG8248,DRSC07124,-0.483,-0.781,
CG33181,DRSC22376,-0.233,1.14,
CG5500,DRSC15820,-0.152,-0.804,
Ser (Serrate),DRSC16856,-0.117,0.289,
mora (morgana),DRSC16594,0.0183,-2.43,
CG33181,DRSC17971,0.517,-0.821,
bdl (borderless),DRSC00271,1.79,-0.888,
CG9932,DRSC03275,1.87,1.61,

The listing continues.
gene knocked down,DRSC id,"droplet/nuclear area B-score, replicate 1","droplet/nuclear area B-score, replicate 2","droplet/nuclear area B-score, replicate 3"
rno (rhinoceros),DRSC08584,0.914,1.09,
vri (vrille),DRSC03633,-1.08,2.25,
vri (vrille),DRSC23174,-1.04,-1.17,
Obp56d (Odorant-binding protein 56d),DRSC06064,0.971,-1.61,
CG11019 (retired record),DRSC02117,-1.13,-0.868,
e(y)2 (enhancer of yellow 2),DRSC19640,0.0325,0.487,-0.479
CG15472,DRSC18055,0.707,0.225,
idc (identity crisis),DRSC15680,-2.52,0.519,
crim (crimpled),DRSC10573,-1.76,3.9,
CG16782,DRSC18118,-0.66,0.351,
Or47b (Odorant receptor 47b),DRSC07492,0.0766,1.85,
CG12278,DRSC14494,1.89,4.81,
Slob (retired record),DRSC03436,-2.35,-0.0314,
Myo31DF (Myosin 31DF),DRSC03376,-3.45,0.606,
Myo31DF (Myosin 31DF),DRSC22702,0.035,0.643,
p23,DRSC15158,-0.521,3.23,
dnt (doughnut on 2),DRSC03522,-0.59,2.11,
CG15927,DRSC19742,0.0203,0.918,3.79
CG31454,DRSC14365,-0.535,-0.407,
CG31454,DRSC22801,0.656,0.66,
mthl14 (methuselah-like 14),DRSC07865,0.443,-0.134,
TfIIEalpha (Transcription factor IIEalpha),DRSC11303,0.491,0.821,
mRpL23 (mitochondrial ribosomal protein L23),DRSC08307,1.1,0.0283,
CG8301,DRSC16405,-1.1,0.0347,
Vago,DRSC19833,1.83,0.835,-0.916
CG15145,DRSC02446,0.492,0.935,
Fmr1 (Fragile X messenger ribonucleoprotein 1),DRSC16674,0.297,-0.473,
Secp43 (tRNA Selenocysteine associated protein),DRSC00454,0.173,-0.739,
CG10384,DRSC03933,-0.531,-0.982,
CG10384,DRSC04067,5.32,-1.42,
AstC-R1 (Allatostatin C receptor 1),DRSC10799,-1.79,0.852,
Skp2 (S-phase kinase-associated protein 2),DRSC12329,-0.454,2.05,0.9
Snx21 (Sorting nexin 21),DRSC00564,0.0318,-1.4,
CG34434,DRSC18134,-1.05,-0.0228,
Trx2 (Thioredoxin 2),DRSC03622,-0.43,0.228,
fru (fruitless),DRSC16951,1.34,0.536,
fru (fruitless),DRSC16952,-2.81,-1.91,
fru (fruitless),DRSC16953,-1.02,-4.32,-0.905
fru (fruitless),DRSC21600,0.233,-0.114,
